According to the supplement of paper PMC10849652:
Some of the results follow.

The chains behind the UniProt entries cited, without tags or fusion partners. Where a name states a change or a piece, a line headed by the entry shows the natural chain unless it says otherwise.
UniProt P25685, whole entry, looked up: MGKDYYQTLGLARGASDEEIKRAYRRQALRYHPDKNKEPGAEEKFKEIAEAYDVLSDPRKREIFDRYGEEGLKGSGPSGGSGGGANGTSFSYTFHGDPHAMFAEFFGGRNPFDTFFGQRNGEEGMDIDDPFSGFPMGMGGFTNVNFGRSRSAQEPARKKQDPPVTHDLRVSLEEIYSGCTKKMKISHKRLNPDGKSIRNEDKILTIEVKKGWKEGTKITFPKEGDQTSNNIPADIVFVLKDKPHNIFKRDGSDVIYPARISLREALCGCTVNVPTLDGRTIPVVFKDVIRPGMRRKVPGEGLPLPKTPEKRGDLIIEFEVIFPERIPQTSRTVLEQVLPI
UniProt Q96F86: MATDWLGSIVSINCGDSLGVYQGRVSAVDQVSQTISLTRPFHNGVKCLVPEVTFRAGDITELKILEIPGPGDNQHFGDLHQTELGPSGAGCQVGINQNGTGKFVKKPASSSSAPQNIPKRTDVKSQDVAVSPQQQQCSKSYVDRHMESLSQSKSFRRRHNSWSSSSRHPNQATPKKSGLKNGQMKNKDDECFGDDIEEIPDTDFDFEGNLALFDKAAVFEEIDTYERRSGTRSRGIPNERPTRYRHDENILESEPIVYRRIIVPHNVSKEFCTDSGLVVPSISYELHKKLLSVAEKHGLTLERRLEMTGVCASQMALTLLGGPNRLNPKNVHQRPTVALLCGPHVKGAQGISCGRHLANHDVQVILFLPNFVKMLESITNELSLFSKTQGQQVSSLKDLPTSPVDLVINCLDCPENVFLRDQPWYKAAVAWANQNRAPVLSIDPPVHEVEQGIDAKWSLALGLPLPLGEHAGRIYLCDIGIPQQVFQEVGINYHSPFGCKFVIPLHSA
UniProt P50570: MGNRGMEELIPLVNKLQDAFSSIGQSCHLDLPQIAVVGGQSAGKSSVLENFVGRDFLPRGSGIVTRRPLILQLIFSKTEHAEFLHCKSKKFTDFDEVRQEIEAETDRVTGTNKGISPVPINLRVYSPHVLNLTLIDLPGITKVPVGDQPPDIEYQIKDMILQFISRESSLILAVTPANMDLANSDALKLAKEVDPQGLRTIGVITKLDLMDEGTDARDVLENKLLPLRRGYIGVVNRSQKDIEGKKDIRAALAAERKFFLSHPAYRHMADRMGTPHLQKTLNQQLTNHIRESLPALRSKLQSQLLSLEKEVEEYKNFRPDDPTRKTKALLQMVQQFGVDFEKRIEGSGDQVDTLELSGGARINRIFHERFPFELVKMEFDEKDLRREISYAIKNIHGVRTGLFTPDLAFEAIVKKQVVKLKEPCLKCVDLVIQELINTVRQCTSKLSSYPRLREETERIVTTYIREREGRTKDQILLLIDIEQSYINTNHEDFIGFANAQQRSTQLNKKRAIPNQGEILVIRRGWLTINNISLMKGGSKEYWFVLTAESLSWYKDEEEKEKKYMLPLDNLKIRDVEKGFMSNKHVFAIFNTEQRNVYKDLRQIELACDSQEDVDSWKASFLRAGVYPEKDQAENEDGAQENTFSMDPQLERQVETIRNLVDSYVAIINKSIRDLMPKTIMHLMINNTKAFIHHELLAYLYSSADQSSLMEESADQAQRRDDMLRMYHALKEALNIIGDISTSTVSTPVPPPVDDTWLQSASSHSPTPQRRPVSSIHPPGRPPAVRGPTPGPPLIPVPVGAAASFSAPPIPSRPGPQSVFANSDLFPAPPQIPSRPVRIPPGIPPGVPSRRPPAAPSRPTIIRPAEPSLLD
UniProt Q9BVJ7: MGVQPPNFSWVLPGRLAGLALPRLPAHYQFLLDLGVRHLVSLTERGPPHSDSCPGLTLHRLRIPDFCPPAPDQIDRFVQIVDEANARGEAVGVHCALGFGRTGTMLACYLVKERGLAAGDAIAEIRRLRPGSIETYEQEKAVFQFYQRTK
UniProt O60869: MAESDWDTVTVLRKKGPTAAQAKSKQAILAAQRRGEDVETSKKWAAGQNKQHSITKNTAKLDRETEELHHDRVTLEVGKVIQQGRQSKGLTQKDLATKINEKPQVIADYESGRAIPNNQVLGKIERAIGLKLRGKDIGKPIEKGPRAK
UniProt P63167, whole entry, looked up: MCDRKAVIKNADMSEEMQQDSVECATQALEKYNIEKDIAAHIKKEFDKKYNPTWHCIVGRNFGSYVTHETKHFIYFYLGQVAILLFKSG
UniProt Q9H3H5: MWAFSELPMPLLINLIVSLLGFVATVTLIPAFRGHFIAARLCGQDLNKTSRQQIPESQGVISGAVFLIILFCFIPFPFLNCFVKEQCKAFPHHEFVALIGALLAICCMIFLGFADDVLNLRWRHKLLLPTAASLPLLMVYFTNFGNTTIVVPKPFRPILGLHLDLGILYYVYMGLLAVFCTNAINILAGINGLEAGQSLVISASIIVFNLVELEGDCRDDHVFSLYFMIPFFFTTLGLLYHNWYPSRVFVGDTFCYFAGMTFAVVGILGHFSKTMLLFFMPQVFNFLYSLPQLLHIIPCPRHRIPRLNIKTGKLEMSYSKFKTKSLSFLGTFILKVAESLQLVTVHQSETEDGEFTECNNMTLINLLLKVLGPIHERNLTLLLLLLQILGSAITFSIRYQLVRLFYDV
UniProt Q9UKB3: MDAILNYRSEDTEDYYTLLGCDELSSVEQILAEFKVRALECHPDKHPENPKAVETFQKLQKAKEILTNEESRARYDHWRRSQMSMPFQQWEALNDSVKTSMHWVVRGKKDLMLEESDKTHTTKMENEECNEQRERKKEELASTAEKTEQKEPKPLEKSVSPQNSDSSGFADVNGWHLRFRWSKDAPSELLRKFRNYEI
UniProt Q9NP97, whole entry, looked up: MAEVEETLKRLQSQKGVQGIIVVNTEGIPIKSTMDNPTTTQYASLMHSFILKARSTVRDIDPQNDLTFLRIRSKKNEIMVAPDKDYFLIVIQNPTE
UniProt Q01658: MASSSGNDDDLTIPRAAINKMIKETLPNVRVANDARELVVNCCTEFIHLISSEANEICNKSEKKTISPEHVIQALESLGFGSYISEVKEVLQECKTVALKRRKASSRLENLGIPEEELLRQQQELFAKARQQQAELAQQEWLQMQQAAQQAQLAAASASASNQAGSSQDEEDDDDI
UniProt Q9NVH1: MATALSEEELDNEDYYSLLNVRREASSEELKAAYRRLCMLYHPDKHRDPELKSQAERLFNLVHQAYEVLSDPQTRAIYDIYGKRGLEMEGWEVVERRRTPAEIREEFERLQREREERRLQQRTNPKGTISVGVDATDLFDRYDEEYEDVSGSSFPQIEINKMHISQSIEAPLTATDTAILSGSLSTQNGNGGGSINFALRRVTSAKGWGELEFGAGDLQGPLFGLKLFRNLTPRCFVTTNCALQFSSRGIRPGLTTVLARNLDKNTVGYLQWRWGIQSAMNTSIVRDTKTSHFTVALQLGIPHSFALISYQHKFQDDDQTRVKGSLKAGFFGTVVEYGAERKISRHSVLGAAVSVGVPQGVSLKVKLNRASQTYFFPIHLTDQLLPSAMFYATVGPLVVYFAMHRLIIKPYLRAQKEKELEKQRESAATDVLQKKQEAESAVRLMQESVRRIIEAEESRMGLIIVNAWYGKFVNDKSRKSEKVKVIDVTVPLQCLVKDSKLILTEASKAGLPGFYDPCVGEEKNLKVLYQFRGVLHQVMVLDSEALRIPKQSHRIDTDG
UniProt O75923: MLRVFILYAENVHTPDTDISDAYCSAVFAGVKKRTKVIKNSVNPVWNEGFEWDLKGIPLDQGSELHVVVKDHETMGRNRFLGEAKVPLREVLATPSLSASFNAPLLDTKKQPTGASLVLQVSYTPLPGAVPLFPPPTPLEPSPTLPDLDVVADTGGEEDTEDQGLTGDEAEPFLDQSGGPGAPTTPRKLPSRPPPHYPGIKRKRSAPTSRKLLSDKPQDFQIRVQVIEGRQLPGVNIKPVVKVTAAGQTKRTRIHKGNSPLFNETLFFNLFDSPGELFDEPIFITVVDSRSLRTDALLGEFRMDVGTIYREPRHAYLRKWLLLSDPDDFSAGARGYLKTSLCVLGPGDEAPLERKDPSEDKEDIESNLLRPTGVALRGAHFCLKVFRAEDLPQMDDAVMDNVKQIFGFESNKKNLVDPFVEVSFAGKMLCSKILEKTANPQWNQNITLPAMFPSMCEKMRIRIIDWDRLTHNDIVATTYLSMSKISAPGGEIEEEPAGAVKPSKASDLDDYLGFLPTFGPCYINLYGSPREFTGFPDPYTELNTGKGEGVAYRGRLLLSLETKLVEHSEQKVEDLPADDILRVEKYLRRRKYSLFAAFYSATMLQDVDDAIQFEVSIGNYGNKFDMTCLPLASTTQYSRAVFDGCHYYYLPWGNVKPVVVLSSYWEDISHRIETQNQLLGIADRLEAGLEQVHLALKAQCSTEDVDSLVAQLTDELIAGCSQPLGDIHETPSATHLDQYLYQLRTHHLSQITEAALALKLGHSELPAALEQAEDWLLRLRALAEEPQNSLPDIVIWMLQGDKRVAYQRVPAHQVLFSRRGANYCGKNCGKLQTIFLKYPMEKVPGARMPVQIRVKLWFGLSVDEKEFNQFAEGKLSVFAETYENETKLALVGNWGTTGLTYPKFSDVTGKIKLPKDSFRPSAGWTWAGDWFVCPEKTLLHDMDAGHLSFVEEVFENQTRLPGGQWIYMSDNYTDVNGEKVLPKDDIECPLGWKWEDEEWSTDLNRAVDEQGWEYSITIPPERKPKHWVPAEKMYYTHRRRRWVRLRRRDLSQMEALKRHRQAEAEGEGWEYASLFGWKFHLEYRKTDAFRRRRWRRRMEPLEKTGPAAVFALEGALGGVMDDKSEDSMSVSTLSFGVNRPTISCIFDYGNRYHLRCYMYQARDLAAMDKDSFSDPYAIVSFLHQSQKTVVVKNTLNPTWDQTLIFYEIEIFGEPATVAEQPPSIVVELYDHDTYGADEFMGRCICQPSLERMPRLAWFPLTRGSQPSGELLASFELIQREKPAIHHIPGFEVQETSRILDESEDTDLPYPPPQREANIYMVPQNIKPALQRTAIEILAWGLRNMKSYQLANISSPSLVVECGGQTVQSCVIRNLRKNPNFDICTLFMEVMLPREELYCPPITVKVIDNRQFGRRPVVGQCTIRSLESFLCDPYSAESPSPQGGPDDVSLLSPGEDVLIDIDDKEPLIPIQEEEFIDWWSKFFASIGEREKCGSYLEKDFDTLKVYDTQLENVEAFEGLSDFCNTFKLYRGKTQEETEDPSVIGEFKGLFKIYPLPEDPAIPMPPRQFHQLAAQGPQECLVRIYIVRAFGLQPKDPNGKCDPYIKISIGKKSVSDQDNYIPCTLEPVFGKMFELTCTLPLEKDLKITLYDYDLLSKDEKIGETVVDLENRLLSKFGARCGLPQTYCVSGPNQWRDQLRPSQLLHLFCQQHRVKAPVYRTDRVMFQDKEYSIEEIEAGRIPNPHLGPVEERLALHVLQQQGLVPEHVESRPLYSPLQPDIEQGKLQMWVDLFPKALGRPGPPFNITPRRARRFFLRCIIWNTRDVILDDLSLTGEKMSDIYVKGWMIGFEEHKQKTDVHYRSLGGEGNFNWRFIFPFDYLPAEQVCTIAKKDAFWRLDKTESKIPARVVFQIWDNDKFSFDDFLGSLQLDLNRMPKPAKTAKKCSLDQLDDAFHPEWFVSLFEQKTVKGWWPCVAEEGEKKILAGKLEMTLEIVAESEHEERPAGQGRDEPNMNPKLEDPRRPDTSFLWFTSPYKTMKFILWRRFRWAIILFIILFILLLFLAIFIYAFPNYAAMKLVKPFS
UniProt Q9BZQ6: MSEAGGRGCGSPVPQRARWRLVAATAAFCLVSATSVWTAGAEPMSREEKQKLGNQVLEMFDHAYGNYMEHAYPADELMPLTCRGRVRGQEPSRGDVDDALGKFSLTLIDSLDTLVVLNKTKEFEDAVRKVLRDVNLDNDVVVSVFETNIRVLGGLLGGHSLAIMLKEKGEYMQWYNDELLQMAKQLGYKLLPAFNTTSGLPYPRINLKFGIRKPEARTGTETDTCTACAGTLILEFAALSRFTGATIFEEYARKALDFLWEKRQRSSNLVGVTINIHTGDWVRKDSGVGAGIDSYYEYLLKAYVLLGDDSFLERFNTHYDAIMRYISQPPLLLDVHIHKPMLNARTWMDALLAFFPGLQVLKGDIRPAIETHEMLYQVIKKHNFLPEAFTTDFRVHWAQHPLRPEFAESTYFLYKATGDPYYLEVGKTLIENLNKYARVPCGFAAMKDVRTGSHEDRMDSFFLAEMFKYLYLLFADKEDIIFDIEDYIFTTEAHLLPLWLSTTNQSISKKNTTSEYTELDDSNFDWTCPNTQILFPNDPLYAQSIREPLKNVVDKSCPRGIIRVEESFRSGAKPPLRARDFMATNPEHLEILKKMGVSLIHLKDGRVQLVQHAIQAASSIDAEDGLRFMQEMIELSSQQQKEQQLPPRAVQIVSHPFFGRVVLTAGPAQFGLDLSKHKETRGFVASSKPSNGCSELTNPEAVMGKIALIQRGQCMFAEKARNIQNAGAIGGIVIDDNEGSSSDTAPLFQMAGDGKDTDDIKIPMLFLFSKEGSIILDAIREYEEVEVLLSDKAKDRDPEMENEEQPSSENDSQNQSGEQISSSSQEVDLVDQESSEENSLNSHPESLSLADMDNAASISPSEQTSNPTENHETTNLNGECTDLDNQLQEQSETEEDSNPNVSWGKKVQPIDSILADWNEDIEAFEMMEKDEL

Assays:
Assay in all cases: log2 fold change, soluble protein after heating vs DMSO (PISA); higher = thermal stabilisation; K562 cells, 10 uM, 30 min; active = over 0.2 and 3.5 SD of the protein, either way, in both replicates (recomputed)
[1] = compound: NC(=O)Nc1cc(-c2cccc(F)c2)sc1C(=O)N[C@H]1CCCNC1
Procedure, shortened: (§1)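 Soluble protein was defined as the supernatant after 21,000xg for 90 min. It came from K562 cells at 2×10^6 cells/mL given 10 μM compound for 30 min, heated in aliquots for 3 min across 48°C-58°C, pooled, and extracted in PBS with 0.5% NP-40 at 4°C, and was quantified by TMTpro 16plex LC-MS/MS with equalised channel sums. Thermal stability against control samples, from duplicates, is reported as log2 fold change.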

[2] = compound: NC(=O)c1cnc(N[C@@H]2CCCC[C@@H]2N)nc1Nc1cccc(-n2nccn2)c1
Procedure, shortened: as §1

[3] = compound: NC1(c2ccc(-c3nc4ccn5c(=O)[nH]nc5c4cc3-c3ccccc3)cc2)CCC1
Procedure, shortened: as §1

[4] = compound: NCC(=O)Nc1ccc(-n2nc(C(F)(F)F)cc2-c2ccc3c(ccc4ccccc43)c2)cc1
Procedure, shortened: as §1

entinostat = compound: Nc1ccccc1NC(=O)c1ccc(CNC(=O)OCc2cccnc2)cc1 [entinostat]
Procedure, shortened: as §1

vorinostat = compound: O=C(CCCCCCC(=O)Nc1ccccc1)NO [vorinostat]
Procedure, shortened: as §1

citarinostat = compound: O=C(CCCCCCNC(=O)c1cnc(N(c2ccccc2)c2ccccc2Cl)nc1)NO [citarinostat]
Procedure, shortened: as §1

silmitasertib = compound: O=C(O)c1ccc2c(c1)nc(Nc1cccc(Cl)c1)c1ccncc12 [silmitasertib]
Procedure, shortened: as §1

[5] = compound: O=C1NC(=O)C(c2cnc3ccccn23)=C1c1cn2c3c(cc(F)cc13)CN(C(=O)N1CCCCC1)CC2
Procedure, shortened: as §1

[6] = compound: c1cc(OCCN2CCCCC2)cc(-c2n[nH]c3ccc(-c4nnc[nH]4)cc23)c1
Procedure, shortened: as §1

entospletinib = compound: c1cn2cc(-c3ccc4cn[nH]c4c3)nc(Nc3ccc(N4CCOCC4)cc3)c2n1 [entospletinib]
Procedure, shortened: as §1

Target | log2 fold change [1] | log2 fold change [2] | log2 fold change [3] | log2 fold change [4] | log2 fold change (entinostat) | log2 fold change (vorinostat) | log2 fold change (citarinostat) | log2 fold change (silmitasertib) | log2 fold change [5] | log2 fold change [6] | log2 fold change (entospletinib)
DNAJB1 (UniProt P25685) | inactive: -0.006 | inactive: -0.041 | inactive: -0.09 | inactive: -0.083 | inactive: 0.013 | inactive: 0.034 | inactive: 0.044 | inactive: 0.011 | inactive: -0.005 | inactive: -0.04 | 
EDC3 (UniProt Q96F86) | inactive: -0.162 | inactive: -0.229 | inactive: -0.119 | inactive: -0.075 | inactive: 0.07 | inactive: 0.154 | inactive: 0.042 | inactive: -0.047 | inactive: -0.068 | inactive: -0.152 | 
DNM2 (UniProt P50570) | inactive: -0.019 | inactive: -0.037 | inactive: -0.153 | inactive: -0.023 | inactive: 0.005 | inactive: 0.03 | inactive: 0.051 | inactive: -0.054 | inactive: 0.008 | inactive: -0.014 | 
DUSP23 (UniProt Q9BVJ7) | inactive: -0.016 | inactive: -0.03 | inactive: -0.057 | inactive: -0.055 | inactive: 0.033 | inactive: -0.027 | inactive: 0.055 | inactive: 0.033 | inactive: -0.066 | inactive: -0.03 | inactive: 0.046
DOCK9 isoform 4 (UniProt Q9BZ29) | inactive: 0.113 | inactive: -0.179 | inactive: -0.029 | inactive: -0.073 | inactive: 0.058 | inactive: 0.003 | inactive: 0.011 | inactive: -0.027 | inactive: 0.056 | inactive: 0.056 | inactive: -0.015
DPY19L4 (UniProt Q7Z388) | inactive: 0.061 | inactive: -0.126 | inactive: -0.16 | inactive: -0.068 | inactive: 0.228 | inactive: 0.074 | inactive: 0.008 | inactive: 0.071 | inactive: -0.087 | inactive: -0.208 | inactive: 0.036
ECI1 (UniProt P42126) | inactive: -0.018 | inactive: -0.003 | inactive: 0.004 | inactive: -0.045 | inactive: 0.022 | inactive: -0.021 | inactive: 0.006 | inactive: -0.001 | inactive: -0.035 | inactive: -0.053 | inactive: 0.025
EDF1 (UniProt O60869) | inactive: 0.009 | inactive: 0.001 | inactive: 0.026 | inactive: 0.003 | inactive: -0.025 | inactive: -0.004 | inactive: 0.004 | inactive: -0.045 | inactive: -0.096 | inactive: 0.027 | inactive: -0.016
ECE1 (UniProt P42892) | inactive: 0.018 | inactive: -0.144 | inactive: -0.234 | inactive: -0.049 | inactive: -0.046 | inactive: 0.07 | inactive: 0.076 | inactive: -0.039 | inactive: -0.049 | inactive: -0.18 | inactive: -0.045
DYNLL1 (UniProt P63167) | inactive: 0.015 | inactive: 0.017 | inactive: 0.035 | inactive: 0.031 | inactive: 0.099 | inactive: -0.046 | inactive: 0.032 | inactive: 0.022 | inactive: -0.053 | inactive: -0.124 | inactive: 0.105
DPAGT1 (UniProt Q9H3H5) | inactive: 0.076 | inactive: -0.01 | inactive: -0.033 | inactive: 0.195 | inactive: 0.132 | inactive: -0.301 | inactive: -0.027 | inactive: -0.015 | inactive: 0.059 | inactive: 0.021 | inactive: 0.031
DNAJC12 (UniProt Q9UKB3) | inactive: -0.106 | inactive: -0.048 | inactive: -0.028 | inactive: -0.026 | inactive: -0.032 | inactive: 0.008 | inactive: 0.112 | inactive: 0.014 | inactive: -0.054 | inactive: 0.178 | inactive: -0.076
DNPH1 (UniProt O43598) | inactive: -0.001 | inactive: 0.05 | inactive: 0.007 | inactive: 0.089 | inactive: -0.056 | inactive: -0.001 | inactive: 0.036 | inactive: -0.03 | inactive: -0.04 | inactive: -0.008 | inactive: 0.026
DNAJC21 isoform 3 (UniProt Q5F1R6) | inactive: -0.099 | inactive: 0.045 | inactive: 0.062 | inactive: -0.021 | inactive: -0.017 | inactive: 0.085 | inactive: -0.042 | inactive: 0.035 | inactive: 0.084 | inactive: -0.092 | inactive: -0.012
DPY30 (UniProt Q9C005) | inactive: 0.283 | inactive: 0.32 | inactive: 0.109 | inactive: 0.329 | inactive: 0.213 | inactive: -0.201 | inactive: -0.166 | inactive: -0.035 | inactive: -0.04 | inactive: -0.15 | inactive: 0.002
DNAJB14 (UniProt Q8TBM8) | inactive: 0.033 | inactive: 0.021 | inactive: -0.102 | inactive: 0.06 | inactive: 0.004 | inactive: 0.014 | inactive: 0.006 | inactive: -0.043 | inactive: 0.067 | inactive: 0.012 | inactive: 0.047
DYNLRB1 (UniProt Q9NP97) | inactive: -0.011 | inactive: -0.023 | inactive: -0.01 | inactive: -0.046 | inactive: -0.004 | inactive: -0.086 | inactive: -0.049 | inactive: -0.014 | inactive: -0.192 | inactive: -0.068 | inactive: 0.02
EDEM1 (UniProt Q92611) | inactive: 0.066 | inactive: 0.019 | inactive: -0.063 | inactive: 0.083 | inactive: -0.005 | inactive: 0.101 | inactive: 0.079 | inactive: 0.059 | inactive: 0.051 | inactive: -0.086 | inactive: -0.033
DR1 (UniProt Q01658) | inactive: 0.001 | inactive: -0.017 | inactive: 0.011 | inactive: 0.004 | inactive: 0.001 | inactive: 0.001 | inactive: 0.01 | inactive: 0.015 | inactive: -0.005 | inactive: -0.056 | inactive: -0.081
DPH6 (UniProt Q7L8W6) | inactive: -0.093 | inactive: -0.036 | inactive: -0.08 | inactive: -0.038 | inactive: 0.087 | inactive: 0.065 | inactive: 0.094 | inactive: 0 | inactive: -0.027 | inactive: -0.031 | inactive: -0.04
DNM1L isoform 6 (UniProt O00429) | inactive: -0.046 | inactive: -0.039 | inactive: -0.096 | inactive: -0.063 | inactive: 0.012 | inactive: 0.009 | inactive: 0.028 | inactive: 0.005 | inactive: -0.007 | inactive: 0.004 | inactive: -0.051
DTL (UniProt Q9NZJ0) | inactive: -0.086 | inactive: 0.189 | inactive: -0.036 | inactive: -0.036 | inactive: 0.077 | inactive: 0.032 | inactive: -0.094 | inactive: -0.049 | inactive: -0.037 | inactive: -0.118 | inactive: -0.134
DPP8 (UniProt Q6V1X1) | inactive: -0.243 | inactive: -0.126 | inactive: -0.04 | inactive: -0.079 | inactive: -0.124 | inactive: -0.021 | active: -0.325 | inactive: 0.063 | inactive: -0.114 | inactive: 0.219 | active: -0.377
DNAJC11 (UniProt Q9NVH1) | inactive: -0.012 | inactive: -0.037 | inactive: -0.052 | inactive: -0.038 | inactive: 0.005 | inactive: -0.008 | inactive: 0.012 | inactive: -0.021 | inactive: -0.056 | inactive: 0.006 | inactive: -0.011
DYSF isoform 13 (UniProt O75923) | inactive: -0.093 | inactive: -0.011 | inactive: -0.026 | inactive: 0.051 | inactive: -0.091 | inactive: 0.011 | inactive: -0.482 | inactive: 0.016 | inactive: -0.026 | inactive: -0.007 | inactive: 0.155
DSC2 (UniProt Q02487) | inactive: -0.078 | inactive: 0.04 | inactive: -0.129 | inactive: -0.061 | inactive: -0.233 | inactive: 0.083 | inactive: 0.016 | inactive: -0.006 | inactive: 0.019 | inactive: -0.027 | inactive: 0.054
EDEM3 (UniProt Q9BZQ6) | inactive: 0.034 | inactive: -0.03 | inactive: -0.076 | inactive: 0.052 | inactive: -0.04 | inactive: 0.022 | inactive: 0.011 | inactive: 0.08 | inactive: 0.025 | inactive: -0.123 | inactive: 0.067
DYNLL2 (UniProt Q96FJ2) | inactive: -0.03 | inactive: -0.034 | inactive: 0.01 | inactive: -0.094 | inactive: 0.047 | inactive: -0.027 | inactive: 0.025 | inactive: -0.029 | inactive: -0.057 | inactive: -0.004 | inactive: 0.052

Two consecutive entries already listed:
Target | log2 fold change [1] | log2 fold change [2] | log2 fold change [3] | log2 fold change [4] | log2 fold change (entinostat) | log2 fold change (vorinostat) | log2 fold change (citarinostat) | log2 fold change (silmitasertib) | log2 fold change [5] | log2 fold change [6] | log2 fold change (entospletinib)
EDEM1 (UniProt Q92611) | inactive: 0.066 | inactive: 0.019 | inactive: -0.063 | inactive: 0.083 | inactive: -0.005 | inactive: 0.101 | inactive: 0.079 | inactive: 0.059 | inactive: 0.051 | inactive: -0.086 | inactive: -0.033
DR1 (UniProt Q01658) | inactive: 0.001 | inactive: -0.017 | inactive: 0.011 | inactive: 0.004 | inactive: 0.001 | inactive: 0.001 | inactive: 0.01 | inactive: 0.015 | inactive: -0.005 | inactive: -0.056 | inactive: -0.081
